# Reference: PMC7819943, “Rice protein-binding microarrays: a tool to detect cis-acting elements near promoter regions in rice”
# Some of the results follow.
# Target: T1, OsSMF1 (Oryza sativa, UniProt Q6ZLB0 1-436)
# T1 sequence: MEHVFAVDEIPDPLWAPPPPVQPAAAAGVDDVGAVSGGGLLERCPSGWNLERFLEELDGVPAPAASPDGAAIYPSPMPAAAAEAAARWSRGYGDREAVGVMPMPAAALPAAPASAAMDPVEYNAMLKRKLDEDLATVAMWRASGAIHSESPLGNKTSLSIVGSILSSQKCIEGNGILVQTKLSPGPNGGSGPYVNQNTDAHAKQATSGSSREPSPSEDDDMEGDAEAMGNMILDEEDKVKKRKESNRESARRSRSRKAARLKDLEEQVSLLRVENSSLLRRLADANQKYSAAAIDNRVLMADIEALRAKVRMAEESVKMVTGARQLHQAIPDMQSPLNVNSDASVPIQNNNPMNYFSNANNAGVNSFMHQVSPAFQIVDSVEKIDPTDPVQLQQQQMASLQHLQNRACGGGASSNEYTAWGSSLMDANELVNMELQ
# Assay: protein-binding microarray (RPBM); PBS, 2% BSA, 51.3 ng/ul salmon testes DNA, 50 uM zinc acetate, 200 nM TF, 25 C, 1 h; high values mean tight binding
# Conditions: protein: recombinant; tags: N-terminal polyhistidine and DsRed monomer fusion (pET32a); chain copies: 2; label: CyDye5-dUTP incorporated in the synthesized complementary strand; 3' TTTTT single-stranded linker to array surface; dsDNA, one strand shown
# Procedure, shortened: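 Polyhistidine-tagged DsRed fusions of transcription factors, joined at the N-terminus, were expressed in E. coli BL21-CodonPlus and isolated on Ni–NTA. They were incubated at 200 nM for 1 h at 25 °C on a custom Agilent array, double-stranded and BSA-blocked, in PBS with 2% BSA, salmon testes DNA and 50 µM zinc acetate. The binding signal is per-feature fluorescence intensity (arbitrary units) read on an Axon 4000B scanner after washing.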
row,Sequence,binding signal
1,TCATCTCTCGGCTCTAGGTCATTAGCTAGCTAATGAACTCCGGAGTCACCTAGTGCAG,3540 fluorescence intensity (a.u.)
2,TCGGCTCCTTCCCCGTCGTCGTGGGCTCGTCGGTGGACATCGGAGTCACCTAGTGCAG,3450 fluorescence intensity (a.u.)
3,TACTAATTGTGTCATCATTCGTATTTACTCCCTCCGTTTCCGGAGTCACCTAGTGCAG,6280 fluorescence intensity (a.u.)
4,TCTTGCTAATTGGTATGCCACATACGACAAAACCCCTCTCCGGAGTCACCTAGTGCAG,5230 fluorescence intensity (a.u.)
5,CAAGACGAAGCGAATTCGCATCAAAACTGGCCGATAATTACGGAGTCACCTAGTGCAG,26000 fluorescence intensity (a.u.)
6,CCCAGTCGTTGTAGTTGGTCTTGGTCAGCAGCGGGTAGTTCGGAGTCACCTAGTGCAG,5220 fluorescence intensity (a.u.)
7,TGTCGGCGCAGATCAGAAGGATCTGACGCGTTTCGGTTTCCGGAGTCACCTAGTGCAG,3520 fluorescence intensity (a.u.)
8,TTAATAAAATAAACCAACCGATGTGTCATATCACGTACAACGGAGTCACCTAGTGCAG,5130 fluorescence intensity (a.u.)
9,TAAAAGGAATGCGAACACGTGTGTTCGTGTACGTGGGGTGCGGAGTCACCTAGTGCAG,9210 fluorescence intensity (a.u.)
10,GACTTGTCCGGCGGTGTACCTCAACACGTGGGCAGGTGTCCGGAGTCACCTAGTGCAG,7320 fluorescence intensity (a.u.)
11,TCGCCATGTCCGAGCTCCGCGTGTCGAGAGCACGAGCCACCGGAGTCACCTAGTGCAG,4110 fluorescence intensity (a.u.)
12,GCTGTTCGCCACGTTCGCAGACTGGGCGGGACACGTGCCTCGGAGTCACCTAGTGCAG,11500 fluorescence intensity (a.u.)
13,CACCGCTTTTCGGACACGTAGGTCTGCGTGCGAAATATCCCGGAGTCACCTAGTGCAG,3470 fluorescence intensity (a.u.)
14,ACTGCCATGGTTGCGGAGCAGGATGGTGACGTGGATCCCACGGAGTCACCTAGTGCAG,17700 fluorescence intensity (a.u.)
15,GGCACTTACGTAAAGATGAGGGATAAAATGTCGACTTATTCGGAGTCACCTAGTGCAG,3640 fluorescence intensity (a.u.)
16,TTTCAATATGTTTATTTGTATCGTTATATGGTATAGGATCCGGAGTCACCTAGTGCAG,13800 fluorescence intensity (a.u.)
17,AAGTCTGTCTTTACATACCTACATACGTGTATTTGTATGTCGGAGTCACCTAGTGCAG,3390 fluorescence intensity (a.u.)
18,GTGCGCGTGCCGTGCACGGCGCACGCCGCCGCAACCGTCGCGGAGTCACCTAGTGCAG,3950 fluorescence intensity (a.u.)
19,TTTGAAACCGATTTCAACCGACGTGGCGGCTGAGTCGGCGCGGAGTCACCTAGTGCAG,13000 fluorescence intensity (a.u.)
20,GAAGTATATGACATATTATATAGATAGTGGTAGTACATGTCGGAGTCACCTAGTGCAG,3500 fluorescence intensity (a.u.)
21,TGTTGTCAAAATGTGCTTGTCTCCTTTTAGTTTTCAATGACGGAGTCACCTAGTGCAG,9590 fluorescence intensity (a.u.)

row,Sequence,binding signal
1,TATCGTTCAACTTCAACACCACGTTATTTGCACGCATCTACGGAGTCACCTAGTGCAG,3550 fluorescence intensity (a.u.)
2,AGGCCTGTGATGATGTGCACGCACTGCTTCTCAGACAGGGCGGAGTCACCTAGTGCAG,21500 fluorescence intensity (a.u.)
3,GGTGATCAATGATCAAGTGCCAGCATGAATGGTTCGTACACGGAGTCACCTAGTGCAG,36200 fluorescence intensity (a.u.)
4,ATGGGGTTTATTTTGCAAAAGACAGCTGAGGTGGCACGCTCGGAGTCACCTAGTGCAG,12100 fluorescence intensity (a.u.)
5,ATCATCAACCGCGCGTCATGGTTGGTACAACATCGTTTGTCGGAGTCACCTAGTGCAG,4180 fluorescence intensity (a.u.)
6,TAAACGGGCTTTTGCTGGCCAATTAGTGTGTCACGATATGCGGAGTCACCTAGTGCAG,3850 fluorescence intensity (a.u.)
7,AAGTTGTGTAAATTCGGTCATGTCAGACAAATGTCAGCCCCGGAGTCACCTAGTGCAG,3920 fluorescence intensity (a.u.)
8,TAAGCCCATCTTCCACATCTTCATTTATTGAGGTGTGTTCCGGAGTCACCTAGTGCAG,3620 fluorescence intensity (a.u.)
9,TACATCATGCGTCGCTGCGTCACCATGCTCGTCTGCTGGCCGGAGTCACCTAGTGCAG,10200 fluorescence intensity (a.u.)
10,TTGTGTTCCCCTTGCACGTCTGCATCGTTGGTGTGGCTTGCGGAGTCACCTAGTGCAG,3730 fluorescence intensity (a.u.)
11,TTCTGCTCCCAGCTGCCAGCTACGTTGCAACCCCACCACCCGGAGTCACCTAGTGCAG,3370 fluorescence intensity (a.u.)
12,CGATTCAAAGCCGAGCGGCGTCGCCACTCGCCACCACCTCCGGAGTCACCTAGTGCAG,6650 fluorescence intensity (a.u.)
13,TACTACCATGACGCTGCACTGCATGTTCGGATGTATTTCCCGGAGTCACCTAGTGCAG,6280 fluorescence intensity (a.u.)
14,AGTCTGGCTTGGCTCCCTCCCCTGTAGCTCATCCAGCAACCGGAGTCACCTAGTGCAG,3160 fluorescence intensity (a.u.)
15,CAATTCCTTCTCCTCCCTCTACCGCCATATCAGCACACGTCGGAGTCACCTAGTGCAG,4240 fluorescence intensity (a.u.)
16,CTATGGCTCATGAGCCAAAATTCAAAAGGCTAACGTTGGCCGGAGTCACCTAGTGCAG,43400 fluorescence intensity (a.u.)
17,GCCCATCAGCCAACCTCCCCTTAGGCCTGATGACACGGAACGGAGTCACCTAGTGCAG,3890 fluorescence intensity (a.u.)
18,GCTGTTTCATTCAACTGACAAATTCTGTTCATAGTCACGCCGGAGTCACCTAGTGCAG,4060 fluorescence intensity (a.u.)
19,AGGAGTCTCCCGTACATGCGGCCTGATTTGACCCAATCCCCGGAGTCACCTAGTGCAG,3820 fluorescence intensity (a.u.)
20,TTCACTAATGTGGCCCATGATGACTCGGCCGGTTAGACTACGGAGTCACCTAGTGCAG,6150 fluorescence intensity (a.u.)
21,CGCGCCGCGCACGCACGCACGCACGCATGTGCCCACCCTGCGGAGTCACCTAGTGCAG,3470 fluorescence intensity (a.u.)

# Retrieved one by one from above:
row,Sequence,binding signal
10,TTGTGTTCCCCTTGCACGTCTGCATCGTTGGTGTGGCTTGCGGAGTCACCTAGTGCAG,3730 fluorescence intensity (a.u.)
7,AAGTTGTGTAAATTCGGTCATGTCAGACAAATGTCAGCCCCGGAGTCACCTAGTGCAG,3920 fluorescence intensity (a.u.)
